Results from publication PMC7044221.
Like-named read-outs stand apart in the source and are kept apart here. No constants are given. Whether binding was seen depends on the method and setting. Binding seen in cells or lysates may run through a third protein. Some entries that bind do so weakly or less than the wild type. Values belong to the molecule of their own block, whether it stands above or below them.

Amino acid sequences for entries named in this document (tags omitted).
UniProt D0VYJ9: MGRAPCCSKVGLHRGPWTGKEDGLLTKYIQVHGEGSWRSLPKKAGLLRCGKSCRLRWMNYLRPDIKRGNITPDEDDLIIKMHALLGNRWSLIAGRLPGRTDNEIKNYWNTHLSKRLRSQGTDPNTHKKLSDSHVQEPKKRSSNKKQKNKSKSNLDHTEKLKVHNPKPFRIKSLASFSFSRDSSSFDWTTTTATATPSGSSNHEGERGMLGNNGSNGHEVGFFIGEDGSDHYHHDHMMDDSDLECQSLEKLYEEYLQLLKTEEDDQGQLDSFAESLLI

Tests used:
Assay in all cases: split reporter; BiFC with NtYFP and CtYFP fragments tested on both Nt and Ct sides of each factor; transient co-expression in N. benthamiana leaves (A. tumefaciens C58, OD600 0.4) with HC-Pro; confocal microscopy at 3 days post-infiltration
DkMYB2 (Diospyros kaki) [1] = molecular target: T1, DkMYB2 (Diospyros kaki) (UniProt D0VYJ7)
T1 sequence: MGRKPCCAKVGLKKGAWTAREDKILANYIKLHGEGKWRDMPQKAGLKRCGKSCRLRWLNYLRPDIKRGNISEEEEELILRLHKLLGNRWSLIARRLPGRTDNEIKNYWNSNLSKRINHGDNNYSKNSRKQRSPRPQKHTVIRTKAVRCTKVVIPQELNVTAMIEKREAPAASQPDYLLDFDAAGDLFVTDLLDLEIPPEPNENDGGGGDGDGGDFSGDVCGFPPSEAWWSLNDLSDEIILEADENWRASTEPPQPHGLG

DkMYB4 (Diospyros kaki) = DkMYB4 (Diospyros kaki) (UniProt D0VYJ9)
DkMYB2 (Diospyros kaki) [2] = molecular target: T1, DkMYB2 (Diospyros kaki); remark: listed apart in the source

binding (DkMYB2 (Diospyros kaki) [1]): binds | binding (DkMYB4 (Diospyros kaki)): binds
Molecule: DkMYB4 (from UniProt D0VYJ9 1-277)

binding (DkMYB2 (Diospyros kaki) [2]): binds
B1: DkMYB2 (protein, UniProt D0VYJ7 1-259)
chain: T1 sequence
